# Some entries share one result that the patent states for a list of compounds.
# System: HT-29 cells
# Assay: Cancer cell proliferation suppression, CellTiter-Glo Luminescent Cell Viability Assay
# Type: cell-based, human
# Details: 100 nM siRNA, 5 days after addition
row,Substance,proliferation inhibition compared to cells supplemented with non-silencing siRNA
1,siRNA to human Shh: siRNA to human Shh (Ambion; SEQ ID NO: 19) (GGGAAGAUCUCCAGAAACUTT; chemistry not given here),50 to 60%
2,siRNA to human HHAT: siRNA to human HHAT (Ambion; SEQ ID NO: 20) (GGAAUUUGAGCUGGAGACUTT; chemistry not given here),50 to 60%
